These are yes or no findings as the source states them, for the method shown. In cells and extracts the contact can be indirect. These calls come from enrichment with a bait or labelling near it, and not all partners need be listed.

Protein sequences, listed by entry. Tags and fused reporters are not part of them.
UniProt Q55247: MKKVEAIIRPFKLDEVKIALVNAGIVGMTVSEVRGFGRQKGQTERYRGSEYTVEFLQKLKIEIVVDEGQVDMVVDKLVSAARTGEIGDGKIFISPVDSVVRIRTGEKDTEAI

In this assay the target is T1, PirC-mCitrine (Synechocystis sp. PCC 6803) (UniProt P77971).
T1 sequence: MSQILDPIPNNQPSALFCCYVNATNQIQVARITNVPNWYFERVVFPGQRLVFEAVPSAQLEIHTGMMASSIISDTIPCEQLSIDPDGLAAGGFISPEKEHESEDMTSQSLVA
Description: affinity purification with mass spectrometry.

Turning to “PII (endogenous) (from UniProt Q55247 1-112)”, the binding result is “binds”.

Values taken from article doi:10.1101/2020.09.11.292599.
